# Part of at least one peptide drawing is inferred or uncertain, most often the ends. Residues, ends and D or L forms follow the SMILES beside them.
# How the values were obtained:
# Pancreatic βTC-3 cells = experiment: IL-1β-induced pancreatic β-cell death, apoptotic counts after Hoechst/PI staining; type: cell-based; conditions: IL-1β 10 ng/mL, 48 hours, Hoechst/PI apoptotic counts (FIG. 3)
# Rat cortical neurons = experiment: NMDA-induced death of rat cortical neurons in culture (Hoechst/PI, LDH release); type: cell-based; conditions: 1 μM peptide, Hoechst/PI staining and LDH released in the medium (FIG. 5A, 5B)
smiles,measurement,setting,value
CSCC[C@H](NC(=O)CNC(=O)[C@@H](NC(=O)[C@H](CO)NC(=O)[C@@H](NC(=O)[C@H](CO)NC(=O)[C@H](CCCNC(=N)N)NC(=O)[C@H](CCCNC(=N)N)NC(=O)[C@H](CCCNC(=N)N)NC(=O)[C@H](CCC(N)=O)NC(=O)[C@H](CCCNC(=N)N)NC(=O)[C@H](CCCNC(=N)N)NC(=O)[C@H](CCCCN)NC(=O)[C@H](CCCCN)NC(=O)[C@@H](N)CCCNC(=N)N)C(C)C)C(C)C)C(=O)N1CCC[C@H]1C(=O)N1CCC[C@H]1C(=O)N[C@@H](CO)C(=O)N1CCC[C@H]1C(=O)N[C@@H](CCCNC(=N)N)C(=O)N1CCC[C@H]1C(=O)O [TAT-αSH3] (H-RKKRRQRRRSVSVGMPPSPRP-OH),protection of insulin-secreting cells against IL-1β-induced death,Pancreatic βTC-3 cells,protects insulin-secreting cells against IL-1β-induced death
same,protection of neurons against NMDA-induced death,Rat cortical neurons,completely protected

# Reference: patent US7943574B2, “Cell-permeable peptide inhibitors of the JNK signal transduction pathway” (Xigen SA, priority 2002, dated 2011)
